Each structure is given as a SMILES string. Some of the results follow. The main result of the screen is listed elsewhere. These columns were measured beside it and carry no call. Most of these compounds were active or inconclusive in the main read-out, so they are no random draw. Words in brackets tell the shape of the fitted curve; partial curves, single points and poor fits give uncertain potencies.

A short description of the assay: qHTS Assay to Find Inhibitors of Chronic Active B-Cell Receptor Signaling. The settings on record: ABC-DLBCL IkBa-CBG/CBR reporter, luminescence ratio (green luciferase fused to IkBa over red control in TMD8 lymphoma cells), 4 h. In outline:
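Doxycycline induced both beetle luciferases in TMD8 lymphoma cells; IKK-driven degradation limits the IkappaBalpha-fused green signal, while red luminescence normalises for cell number and nonspecific effects. Compounds tested up to 46 uM, 4 hrs.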

Setting [1] is: measured here: CBR red luminescence, cell number.

In general, AC50 refers to the concentration giving half of the maximal activity seen. In the case of `CC1(C)CC(=O)C2=C(C1)Oc1ncn(Cc3ccco3)c(=N)c1C2c1ccccc1` (stereo unspecified), the AC50 under setting [1] was 17.8 µM [falling, single point].

As for `COc1c(C)cccc1C(=O)Nc1ccc(N2CCN(C(=O)c3ccccc3C)CC2)cc1`, the AC50 under setting [1] was 15.8 µM [falling, partial curve].

On to `Cc1ccc(OCC(O)Cn2c(=N)n(CCN3CCCCC3)c3ccccc32)cc1` (stereo unspecified), for which the AC50 under setting [1] was 20.6 µM [falling, single point].

In the case of `O=S(=O)(Nc1cccc(S(=O)(=O)N2CCCC2)c1)c1cccc(Br)c1`, the AC50 under setting [1] is 9.2 µM [falling, partial curve, poor fit].

For the molecule `O=C(Nc1ccn(Cc2ccccc2)n1)c1cccc(Cn2cc([N+](=O)[O-])cn2)c1`, under setting [1], the AC50 was 9.2 µM [falling, partial curve, poor fit].

For `COc1cc(/C=C2/S/C(=N/S(=O)(=O)c3ccccc3)NC2=O)c([N+](=O)[O-])cc1OC`, the AC50 reads like this: under setting [1], 20.6 µM [rising, partial curve]; (measured here: IkBa-CBG green luminescence) 18.4 µM [falling, partial curve, poor fit].

As to `O=C1NNC(c2ccccc2)=N/C1=C\c1ccc(Cl)cc1`, the AC50 under setting [1] was 31.6 µM [rising, single point].

Turning to `N#CC1=C(S)N(c2ccccc2)C(c2ccco2)NC1=O` (stereo unspecified), the AC50 under setting [1] is 35.5 µM [falling, single point].

Take `COc1ccc(/C=C/C(=O)c2ccc(O)cc2)cc1`: the AC50 under setting [1] is 8.91 µM [falling, partial curve, poor fit].

Turning to `COc1ccccc1NC(=O)c1ccc(NC(=O)CSc2ncccn2)cc1`, the AC50 under setting [1] is 35.5 µM [rising, single point].

Take `Cc1cc(NC(=O)NC(=O)c2cccc(OC(F)(F)C(F)F)c2)n[nH]1`: the AC50 under setting [1] is 1.84 µM [falling, partial curve, poor fit].

For the molecule `CCN1C(=O)/C(=C/c2ccc(C)o2)N(C)C1=S`, the AC50 under setting [1] is 14.6 µM [falling, single point].

For `COc1ccc(NCc2ccc([N+](=O)[O-])s2)c(OC)c1`, the AC50 under setting [1] is 32.6 µM [rising, partial curve, poor fit].

On to `O=C(NCCc1ccc(F)cc1)c1cc(=O)c2ccccc2o1`, for which the AC50 under setting [1] was 20 µM [falling, partial curve, poor fit].

For the molecule `Cc1cccc(NC(=O)CSc2nc3ccccc3o2)c1`, the AC50 under setting [1] was 0.58 µM [rising, partial curve, poor fit].

In the case of `Cc1ccc(C)c(OCCN2C(=O)NC3(CCc4ccccc4C3)C2=O)c1` (stereo unspecified), the AC50 under setting [1] is 29.1 µM [falling, single point].

For the molecule `CS(=O)(=O)N(CC(=O)N1CCN(c2cccc(Cl)c2)CC1)C1CCCCC1`, under setting [1], the AC50 was 0.731 µM [falling, partial curve, poor fit].

`Nc1ccc(C(=O)NCCCSc2ccccc2)cc1[N+](=O)[O-]`: the AC50 under setting [1] was 1.78 µM [falling, full curve, poor fit].

Take `CCOC(=O)N1CCC(NC(=O)c2cc(C(=O)NCc3cccc(Cl)c3)ccc2CO)CC1`: the AC50 under setting [1] is 18.4 µM [rising, single point].

For `CCN1CCN(c2ncnc3scc(-c4ccc(OC)cc4)c23)CC1`, the AC50 under setting [1] was 35.5 µM [falling, single point].

With `CC(=O)[C@@]12O[C@@H]1C[C@H]1[C@@H]3CC[C@H]4C[C@@H](O)CC[C@]4(C)[C@H]3CC[C@@]12C`, the AC50 under setting [1] is 11.2 µM [rising, partial curve, poor fit].

As for `COc1ccc(C(=O)N2CCSC2=S)cc1OC`, the AC50 under setting [1] was 18.4 µM [falling, single point].

In the case of `COCCn1c(SCC(=O)Nc2cc(C)on2)nnc1-c1c[nH]c2ccccc12`, under setting [1], the AC50 is 6.51 µM [rising, full curve, poor fit].

Regarding `COc1ccc(C=C2C(=O)c3ccccc3C2=O)cc1O`, the AC50 under setting [1] was 7.08 µM [falling, full curve, poor fit].

As for `COc1ccccc1C(=O)NNC(=O)C1CC=CCC1` (stereo unspecified), under setting [1], the AC50 is 7.94 µM [falling, partial curve].

As to `Cc1ccccc1/C=N/Nc1ncnc2nc[nH]c12`, under setting [1], the AC50 was 11.2 µM [falling, partial curve, poor fit].

Consider `CC(C)(O)C(O)COc1c2ccoc2cc2oc(=O)ccc12` (stereo unspecified), for which, under setting [1], the AC50 was 2.51 µM [rising, full curve, poor fit].

As to `Cn1cnnc1SCC(=O)Nc1ccc(Oc2ccccc2)cc1`, under setting [1], the AC50 was 8.91 µM [falling, partial curve, poor fit].

`COC(=O)COc1ccccc1/C=C1/NC(=O)NC1=O`: the AC50 under setting [1] was 4.11 µM [rising, full curve, poor fit].

On to `C/C(=N/NC(=O)c1ccc(Br)o1)c1cccc(NC(=O)c2ccc(F)cc2)c1`, for which the AC50 under setting [1] is 25.1 µM [falling, single point].

Turning to `CCN(c1ccccc1)S(=O)(=O)c1ccc(C(=O)N(C)Cc2cccs2)cc1`, the AC50 under setting [1] is 25.9 µM [falling, single point].

As for `Cc1ccc(N2C(S)=C(C#N)C(=O)NC23CCCCC3)cc1`, the AC50 under setting [1] was 25.9 µM [rising, partial curve, poor fit].

As to `COc1ccc(NC(=S)NCc2ccccn2)cc1OC`, the AC50 under setting [1] was 22.4 µM [falling, single point].

Regarding `COc1ccc(CSc2nnnn2Cc2ccccc2)cc1OC`, under setting [1], the AC50 was 16.4 µM [rising, single point].

Regarding `CCn1c(=O)n(CC(=O)NCc2ccco2)c(=O)c2ccccc21`, the AC50 under setting [1] was 14.1 µM [falling, single point].

For `O=C(NCC(=O)N1CCOCC1)OCc1ccccc1`, the AC50 under setting [1] is 22.4 µM [rising, partial curve, poor fit].

With `CCCCCC/C=N/Nc1nnc(Cc2ccc(OC)c(OC)c2)c(=O)[nH]1`, under setting [1], the AC50 is 0.0891 µM [rising, full curve, poor fit].

Consider `COC(=O)c1ccccc1NC(=O)CN1CCN(Cc2ccccc2)CC1`, for which the AC50 under setting [1] is 0.112 µM [rising, full curve, poor fit].

Take `CC1C/C(=N/NC(=O)c2cccc(F)c2)c2ccc(O)cc2C1` (stereo unspecified): the AC50 under setting [1] was 16.4 µM [falling, single point].

Turning to `OC1(Cc2cc(-c3ccccc3)no2)CCN(CCCc2ccccc2)CC1`, the AC50 under setting [1] was 12.6 µM [falling, partial curve, poor fit].

As for `CCCc1cc(=O)oc2cc(C)cc(OC(C)C(=O)NCC(O)c3ccccc3)c12` (stereo unspecified), under setting [1], the AC50 is 12.6 µM [falling, partial curve].

For the molecule `COc1ccc(S(=O)(=O)N2CCCC2)c(C)c1C`, under setting [1], the AC50 is 2.82 µM [rising, full curve].

For `CC(=O)NC(Cc1ccccc1)C(=O)OCC(=O)c1ccccc1` (stereo unspecified), the AC50 under setting [1] was 11.6 µM [rising, partial curve, poor fit].

With `O=CNCc1nc2ccccc2n1CCc1ccccc1`, the AC50 under setting [1] was 28.2 µM [falling, partial curve, poor fit].

As to `O=C(/C=C/c1ccc(Cl)cc1)NCc1ccco1`, the AC50 under setting [1] was 20.6 µM [falling, single point].

Take `Nc1nc(Cl)cc(Oc2ccc(Cl)cc2)n1`: under setting [1], the AC50 is 22.4 µM [rising, partial curve, poor fit].

As to `CCCCc1cc(=O)oc2cc(OCC(=O)NCc3ccccn3)c(Cl)cc12`, the AC50 under setting [1] is 35.5 µM [rising, partial curve, poor fit].

For the molecule `COc1ccc(C)cc1-n1nnnc1SCC(=O)N1CCC(C(=O)Nc2nccs2)CC1`, the AC50 under setting [1] is 35.5 µM [falling, single point].

Consider `Cc1cc2c(c(N)n1)c(=O)oc1ccccc12`, for which the AC50 under setting [1] is 2.82 µM [falling, full curve].

`CCn1c(SCC(=O)N2CCc3ccccc32)nnc1-c1c[nH]c2ccccc12`: the AC50 under setting [1] is 0.146 µM [falling, full curve, poor fit].

On to `Nc1nonc1-c1noc(CCCN2C(=O)c3ccccc3C2=O)n1`, for which, under setting [1], the AC50 was 12.6 µM [rising, partial curve].

As to `C=CCc1cc(/C=C/c2nc(O)c([N+](=O)[O-])c(=O)[nH]2)cc(OC)c1O`, the AC50 under setting [1] was 5.62 µM [falling, full curve].

As for `O=C(/C=C/c1ccco1)Nc1cccnc1Cl`, the AC50 under setting [1] is 31.6 µM [falling, single point].

Turning to `O=C(O)C1=C[C@@H](c2ccc3c(c2)OCO3)C[C@@H](OCCCCO)O1`, the AC50 under setting [1] is 4.47 µM [rising, single point].

Turning to `COc1cccc(C(=O)/C=C/Nc2ccc(NC(C)=O)cc2)c1`, under setting [1], the AC50 is 6.51 µM [rising, single point].

Consider `CN(c1ccc(OCC(=O)N2CCC(C(N)=O)CC2)cc1)S(=O)(=O)c1cccs1`, for which the AC50 under setting [1] was 0.0082 µM [falling, full curve, poor fit].

As to `O=C(CCN1C(=O)c2ccccc2C1=O)Nc1cccc(S(=O)(=O)N2CCCCC2)c1`, under setting [1], the AC50 was 5.8 µM [rising, partial curve].

Regarding `COCC(=O)NCCNc1nc2ccc(C)cc2cc1C`, under setting [1], the AC50 is 22.4 µM [rising, single point].

With `O=C(c1nc2ccccn2c1CNCC1OCCc2ccccc21)N1CCOCC1` (stereo unspecified), the AC50 under setting [1] was 35.5 µM [rising, single point].

With `Cc1cccc(C(=O)NNC(=S)NC(=O)c2cccs2)c1`, under setting [1], the AC50 was 10 µM [falling, partial curve].

As to `Cn1cccc1CC(=O)NNC(=S)Nc1ccccc1Cl`, the AC50 under setting [1] was 6.51 µM [rising, single point].

As to `CCOC(=O)COc1nc(C)c(Br)c(OC)n1`, the AC50 under setting [1] is 8.91 µM [rising, partial curve, poor fit].

As to `Cc1cc(C)c(S(=O)(=O)NCCc2csc3nc(-c4ccc(Cl)cc4)nn23)c(C)c1`, the AC50 under setting [1] was 35.5 µM [falling, single point].

On to `O=C1c2ccccc2NC(c2ccccn2)N1NS(=O)(=O)c1ccccc1` (stereo unspecified), for which the AC50 under setting [1] was 0.316 µM [rising, full curve].

Consider `COc1ccccc1NC(=S)N(Cc1ccc(C)cc1)Cc1ccccn1`, for which the AC50 under setting [1] was 14.1 µM [falling, single point].

Values taken from PubChem BioAssay AID493014 (National Center for Advancing Translational Sciences (NCATS), 2011).
